The values that follow come from article PMC7862700.

Only a part is listed here, and it is no random draw. At the low end of the ranking the order means little.

This assay deals with SPI1 (UniProt P17947). The assay can be described thus: DAPPL (digital affinity profiling via proximity ligation, sequencing). To be noted: 10 mM Tris-HCl pH 7.5, 50 mM NaCl, 1 mM DTT, 4% glycerol, room temperature, 30 min; GST-TFs on glutathione beads, 16-mer random dsDNA library, 0.1% …; high values mean tight binding; double strand, one strand shown; scale: fold enrichment (6-mer frequency, TF over GST control).
Turning to CAGGGT, the binding signal was determined as 0.812.

Sequence AGTCGT had a binding signal of 0.419.

Sequence AGTCAC displayed a binding signal of 0.859.

Take GGGATG: the binding signal was found to be 0.989.

In the case of CAACGG, the binding signal worked out at 0.871.

Sequence ACGTGT yielded a binding signal of 0.591.

Turning to GACAAG, the binding signal was determined as 0.722.

In the case of GAGATC, the binding signal came to 0.429.

In the case of GTTAGG, the binding signal was 0.788.

Sequence CCAGTA showed a binding signal of 0.666.

CGGCCA: the binding signal stood at 0.798.

GGTCAA gave a binding signal of 0.882.

The sequence GTCATC yielded a binding signal of 0.884.

As for GGTCGG, the binding signal worked out at 0.288.

Sequence GAGGTC registered a binding signal of 0.54.

Regarding GTCTGA, the binding signal was found to be 0.872.

ATAGAG returned a binding signal of 0.917.

In turn, ACGAGG showed a binding signal of 0.704.

The sequence GAGACG returned a binding signal of 0.321.

The sequence GGCCCG registered a binding signal of 0.845.

Regarding GCGCCA, the binding signal is 0.751.

Sequence AGGACA registered a binding signal of 0.805.

Regarding GCTGGG, the binding signal worked out at 0.856.

The sequence GTAGTG came in with a binding signal of 0.79.

GACGCA yielded a binding signal of 0.5.

In turn, GGAATC displayed a binding signal of 0.699.

AAACGT displayed a binding signal of 0.894.

GACAAT returned a binding signal of 0.915.

Regarding CTCGGA, the binding signal turned out to be 0.825.

In turn, GAGCAC returned a binding signal of 0.727.

Sequence AGGAGA yielded a binding signal of 0.21.

In turn, GCCACG registered a binding signal of 0.894.

Turning to CCATGT, the binding signal came to 0.804.

The sequence GGTGCA registered a binding signal of 0.826.

GAGTAG registered a binding signal of 0.494.

For the sequence CAGGGG, the binding signal amounted to 0.519.

In the case of GCATAG, the binding signal is 0.816.

GGCAAA: the binding signal was found to be 0.886.

Turning to CGGAGG, the binding signal came to 0.263.

CACGTG: the binding signal stood at 0.583.
